The nature of the assay: qHTS Assay for Lipid Storage Modulators in Drosophila S3 Cells.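 For cell number change: cells counted by Cell Tracker Red CMTPX staining in the red channel.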 The settings on record: BODIPY lipid droplet fluorescence, 18-24 h; for cell number change: measured here: cell count max response, cells fed with added oleic acid. The method, boiled down:
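Drosophila S3 cells loaded with oleic acid (400 uM, as added) and compounds at several concentrations; lipid droplets imaged by 488-nm laser-scanning cytometry, 500–530 nm intensity and object ratio to cell channel. Percent activity normalized to 20 uM Triacsin C.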
In general terms: Quantitative high-throughput screening tests each substance at several concentrations.

[1] abbreviates: measured here: cell number channel AC50, cells fed with added oleic acid.
The mark [2] stands for this setting: measured here: lipid fluorescence (Fed channel) AC50, cells fed with added oleic acid.

Some of the results follow. Further columns of the screen follow, without active or inactive calls. The list favours compounds with an active or inconclusive main result. The note in brackets gives the kind of curve behind each potency; many fits are weak.

As a reminder, the AC50 is the midpoint of the concentration-response curve, whichever way the signal moves. Lower therefore signals greater potency.

With `CCOc1ccccc1Nc1nc2ccc(C)cc2n2cnnc12`, the cell number change is -41.7%.
In the case of `CCOC(=O)c1ccc(NS(=O)(=O)c2ccc3c(c2)CCCN3C(C)=O)cc1`, the AC50 under setting [1] is 0.651 µM [falling, full curve].
As for `CS(=O)(=O)N1CCc2cc(C(=O)N3CCN(c4ccc(F)cc4)CC3)ccc21`, the AC50 under setting [2] is 6.51 µM [rising, single point].
On to `COc1cc(OC)c(OC)cc1/C=C1\CC(C)C/C(=C\c2cc(OC)c(OC)cc2OC)C1=O` (stereo not drawn), for which the cell number change is -30.5%. Further, the AC50 under setting [1] is 32.6 µM [falling, single point]. The AC50 under setting [2] is 32.6 µM [falling, partial curve, poor fit].
As to `O=C(Cn1cnc([N+](=O)[O-])n1)N/N=C/c1ccc(O)cc1O`, the cell number change was -16.1%. Besides, the half-maximal activity concentration (AC50) under setting [1] is 6.51 µM [falling, single point]. Further, the AC50 under setting [2] was 4.61 µM [falling, single point].
For the molecule `COc1ccc([N+](=O)[O-])cc1NCc1ccccc1C`, the AC50 under setting [2] is 0.651 µM [falling, single point].
`N#CC1=C(N)Oc2n[nH]c(CSc3ccccc3)c2C12C(=O)Nc1ccccc12` (stereo not drawn): the cell number change is -2.27%. Moreover, the AC50 under setting [2] was 0.146 µM [rising, full curve, poor fit].
Turning to `Cc1ccc(NC(=O)c2cccc(C(=O)Nc3ccc(C)cc3C(=O)O)c2)c(C(=O)O)c1`, the cell number change amounted to 0.741%. The AC50 under setting [2] was 0.731 µM [falling, single point].
With `CC1(C)NC(=O)N(CCOCCOc2c(Cl)cc(Cl)cc2Cl)C1=O`, the cell number change was found to be 97.9%. Moreover, the AC50 under setting [1] is 29.1 µM [rising, single point]. Moreover, the AC50 under setting [2] was 5.8 µM [rising, full curve, poor fit].
Take `COc1ccc(NC(=O)c2ccc(NCCN3C(=O)CCC3=O)c([N+](=O)[O-])c2)cc1`: the cell number change was -42.4%.
In the case of `CC(C)c1ccc(/C=N\NC(=O)c2ccc(Cn3cccn3)o2)cc1`, the cell number change was -13.7%. Also, the AC50 under setting [2] is 20.6 µM [rising, single point].
As to `COC(=O)C1=C(C(=O)c2ccc(C)cc2)C(c2ccccc2)n2nnnc2N1` (stereo not drawn), the cell number change was found to be 0.345%. Also, under setting [2], the AC50 was 1.64 µM [rising, partial curve, poor fit].
Regarding `CN(CC1COc2ccccc2O1)C(=O)CSc1ncnc2sccc12` (stereo not drawn), the cell number change is -13.2%. For the same molecule, the AC50 under setting [2] was 0.146 µM [falling, full curve, poor fit].
As to `Oc1ccccc1/C=C/c1noc(-c2ccccc2O)n1`, the cell number change was determined as 14.6%. In addition, the AC50 under setting [1] is 2.91 µM [falling, partial curve]. Besides, the AC50 under setting [2] was 2.31 µM [falling, partial curve].
With `O=C(CCn1nnc2ccccc2c1=O)N[C@H](C(=O)O)c1ccccc1`, the cell number change turned out to be 0.542%.
For `Cc1c(C#N)c2ccccc2n1CC(=O)N1CCCC1`, the cell number change is -17.6%. In addition, the AC50 under setting [2] is 32.6 µM [rising, single point].
In the case of `CCOc1ccc(NC(=O)CCC(=O)c2ccc(-c3ccccc3)cc2)cc1`, the cell number change amounted to 48.7%. Under setting [1], the AC50 is 16.4 µM [rising, single point]. The concentration at half-maximal activity (AC50) under setting [2] was 2.59 µM [rising, full curve].
Take `CCOC(=O)c1ccc(NC(=O)Oc2cc(C)c(Cl)cc2C(C)C)cc1`: the cell number change was -20.6%.
Take `COC(=O)c1ccc(CO/N=C/c2cccc([N+](=O)[O-])c2)cc1`: the cell number change worked out at 7.91%. For the same molecule, under setting [2], the AC50 was 29.1 µM [falling, single point].
On to `O=C(NCc1ccc2c(c1)OCO2)C1CCCN(S(=O)(=O)c2cccs2)C1` (stereo not drawn), for which the cell number change is 26.6%. In addition, the AC50 under setting [1] is 0.13 µM [rising, full curve, poor fit].
On to `COc1ccc(C(=O)NCCCN(C)CCCNC(=O)c2ccc(OC)cc2)cc1`, for which the cell number change stood at 15.5%. For the same molecule, the AC50 under setting [2] is 29.1 µM [rising, single point].
As to `Cc1cc(=O)[nH]c(SCC(=O)Nc2ccc(C(=O)O)cc2)n1`, the cell number change was 14.5%. Moreover, under setting [1], the AC50 was 0.517 µM [falling, single point].
Consider `Cc1cc2c(N=NC(=O)CCc3ccccc3)c(O)[nH]c2cc1Br`, for which the cell number change stood at 5.01%. In addition, under setting [1], the AC50 is 6.51 µM [rising, partial curve, poor fit]. Besides, the AC50 under setting [2] is 1.03 µM [rising, full curve].
As for `CCc1ccc(NC(=O)CSc2nc3ccccc3c(=O)n2CCCN2CCC(C)CC2)cc1`, the cell number change was -25.8%. Under setting [2], the concentration at half-maximal activity (AC50) is 18.4 µM [falling, single point].
For `CCN1CCN(CC(O)COc2ccc(Cl)cc2)CC1` (stereo not drawn), the cell number change was -45.3%. Also, the AC50 under setting [1] is 29.1 µM [falling, single point]. Besides, the AC50 under setting [2] is 29.1 µM [falling, single point].
For the molecule `Cc1ccccc1C(=O)NC(=S)NCCc1ccccc1`, the cell number change worked out at 36.5%. Also, the AC50 under setting [1] was 7.31 µM [rising, partial curve].
For `COc1ccccc1/C=C1/C(=O)N(c2ccccc2)N=C1C`, the cell number change is 20.8%.
In the case of `O=C(NC(NC(=O)c1ccccc1)c1ccccc1)c1ccccc1`, the AC50 under setting [1] was 6.51 µM [falling, single point].
With `O=C1NC[C@H](CC2CCCCC2)N(CCc2cccc(F)c2)C1=O`, the cell number change is -8.63%. For the same molecule, the AC50 under setting [2] was 0.00411 µM [rising, full curve, poor fit].
On to `C=CCn1c(SCC(=O)/C(C#N)=C(\C)N)nnc1C1CCCCC1`, for which the cell number change is -24.1%. Under setting [2], the AC50 is 0.731 µM [falling, single point].
`Cn1c(C(=O)NC2CCCCC2)cc2c(=O)n3ccccc3nc21`: the cell number change amounted to 23.4%. The half-maximal activity concentration (AC50) under setting [2] is 29.1 µM [falling, single point].
For `Cc1cc2oc(C(=O)N(Cc3ccccc3)C3CCS(=O)(=O)C3)cc(=O)c2cc1Cl` (stereo not drawn), the cell number change stood at 119%. For the same molecule, the concentration at half-maximal activity (AC50) under setting [1] was 2.31 µM [rising, full curve]. The AC50 under setting [2] was 3.66 µM [rising, partial curve].
As to `Cc1cc(C)n(-c2nnc(N3CCN(c4ccc(F)cc4)CC3)nn2)n1`, the cell number change was 35.5%.
In the case of `Cc1cc(C)c2c(CN3CCN(C/C=C/c4ccccc4)CC3)cc(=O)oc2c1`, the cell number change is -25.7%. Also, the AC50 under setting [2] was 16.4 µM [falling, single point].
Consider `O=C(CCNS(=O)(=O)c1cccc2nsnc12)NCCc1ccccc1`, for which the cell number change came out at 3.18%. For the same molecule, the AC50 under setting [2] was 14.6 µM [rising, single point].
Take `CC(=O)NS(=O)(=O)c1ccc(NC(=O)c2ccc(S(=O)(=O)N3CCCC3)cc2)cc1`: the cell number change is -22.1%. For the same molecule, the concentration at half-maximal activity (AC50) under setting [2] was 18.4 µM [falling, single point].
Consider `CC(=O)N1CCc2ccc(S(=O)(=O)Nc3ccccc3Cl)cc21`, for which the cell number change was -24.6%. The AC50 under setting [1] is 0.0058 µM [falling, full curve, poor fit]. In addition, the AC50 under setting [2] is 0.0058 µM [falling, full curve].

The values are drawn from PubChem BioAssay AID2685 (National Center for Advancing Translational Sciences (NCATS), 2010).
